Experimental data: the supplement of paper PMC12823440, “Inhibitors supercharge kinase turnover through native proteolytic circuits” (Nature, 2025)
Some of the results follow. The calls rarely recur for the same compound in another form.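 Kinases were expressed as nanoluciferase fusions in K562 cells and luminescence was read every 4 h between 2 and 18 h as percent of control, DMSO set to 100% and a positive control to 0%. A time point counts as decreased when the signal drops significantly (2 sigma). The hit call is the authors' own, does not follow from the count of time points alone, and its rule is not shown.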

The chains behind the UniProt entries cited, without tags or fusion partners. Where a name states a change or a piece, a line headed by the entry shows the natural chain unless it says otherwise.
UniProt P11362, whole entry, looked up: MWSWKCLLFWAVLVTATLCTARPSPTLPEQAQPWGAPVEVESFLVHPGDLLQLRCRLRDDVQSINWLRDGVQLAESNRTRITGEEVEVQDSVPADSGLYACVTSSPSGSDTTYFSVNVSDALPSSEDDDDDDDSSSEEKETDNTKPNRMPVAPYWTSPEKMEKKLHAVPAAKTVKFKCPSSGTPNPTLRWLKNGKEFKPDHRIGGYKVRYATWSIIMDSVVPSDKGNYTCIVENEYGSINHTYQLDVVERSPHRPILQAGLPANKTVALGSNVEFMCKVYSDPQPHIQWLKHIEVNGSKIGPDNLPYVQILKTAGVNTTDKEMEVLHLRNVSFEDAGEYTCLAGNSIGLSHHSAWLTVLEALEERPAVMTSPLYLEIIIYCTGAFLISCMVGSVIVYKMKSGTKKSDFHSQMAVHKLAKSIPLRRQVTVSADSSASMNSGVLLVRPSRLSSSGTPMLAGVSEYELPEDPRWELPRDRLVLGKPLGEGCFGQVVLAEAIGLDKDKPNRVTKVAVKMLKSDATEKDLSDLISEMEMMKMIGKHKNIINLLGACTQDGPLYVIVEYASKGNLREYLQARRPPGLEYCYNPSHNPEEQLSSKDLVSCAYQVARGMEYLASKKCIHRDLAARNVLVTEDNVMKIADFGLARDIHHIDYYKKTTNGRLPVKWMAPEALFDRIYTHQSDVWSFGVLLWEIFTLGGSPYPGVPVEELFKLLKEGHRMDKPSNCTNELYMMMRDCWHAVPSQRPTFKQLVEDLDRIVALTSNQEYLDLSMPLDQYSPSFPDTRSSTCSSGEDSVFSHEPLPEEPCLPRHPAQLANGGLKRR
UniProt P36888, whole entry: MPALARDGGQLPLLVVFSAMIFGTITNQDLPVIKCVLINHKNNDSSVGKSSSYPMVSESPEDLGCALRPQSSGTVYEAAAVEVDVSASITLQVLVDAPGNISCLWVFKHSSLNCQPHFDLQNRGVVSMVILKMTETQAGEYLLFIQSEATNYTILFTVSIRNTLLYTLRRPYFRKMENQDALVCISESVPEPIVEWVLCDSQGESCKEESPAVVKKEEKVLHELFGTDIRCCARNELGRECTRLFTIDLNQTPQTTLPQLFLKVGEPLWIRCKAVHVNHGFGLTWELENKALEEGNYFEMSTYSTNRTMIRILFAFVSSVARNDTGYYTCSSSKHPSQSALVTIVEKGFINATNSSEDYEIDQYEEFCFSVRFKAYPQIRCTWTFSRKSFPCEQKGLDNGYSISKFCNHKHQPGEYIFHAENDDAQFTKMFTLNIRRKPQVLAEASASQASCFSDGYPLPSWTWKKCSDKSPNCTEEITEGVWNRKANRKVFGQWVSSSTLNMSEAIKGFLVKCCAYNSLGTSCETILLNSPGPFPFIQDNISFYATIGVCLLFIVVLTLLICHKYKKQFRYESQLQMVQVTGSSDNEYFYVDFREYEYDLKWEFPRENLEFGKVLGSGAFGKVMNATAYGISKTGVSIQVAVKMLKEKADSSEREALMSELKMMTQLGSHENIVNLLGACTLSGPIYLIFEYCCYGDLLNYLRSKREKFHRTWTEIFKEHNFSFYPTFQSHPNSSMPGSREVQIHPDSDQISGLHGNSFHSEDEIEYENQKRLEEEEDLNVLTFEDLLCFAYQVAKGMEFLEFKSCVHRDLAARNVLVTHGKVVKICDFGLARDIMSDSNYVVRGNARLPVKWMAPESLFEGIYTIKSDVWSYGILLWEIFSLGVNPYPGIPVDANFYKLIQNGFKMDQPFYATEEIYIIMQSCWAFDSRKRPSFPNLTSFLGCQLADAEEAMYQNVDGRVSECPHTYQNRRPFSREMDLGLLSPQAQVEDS
UniProt P06241, whole entry, looked up: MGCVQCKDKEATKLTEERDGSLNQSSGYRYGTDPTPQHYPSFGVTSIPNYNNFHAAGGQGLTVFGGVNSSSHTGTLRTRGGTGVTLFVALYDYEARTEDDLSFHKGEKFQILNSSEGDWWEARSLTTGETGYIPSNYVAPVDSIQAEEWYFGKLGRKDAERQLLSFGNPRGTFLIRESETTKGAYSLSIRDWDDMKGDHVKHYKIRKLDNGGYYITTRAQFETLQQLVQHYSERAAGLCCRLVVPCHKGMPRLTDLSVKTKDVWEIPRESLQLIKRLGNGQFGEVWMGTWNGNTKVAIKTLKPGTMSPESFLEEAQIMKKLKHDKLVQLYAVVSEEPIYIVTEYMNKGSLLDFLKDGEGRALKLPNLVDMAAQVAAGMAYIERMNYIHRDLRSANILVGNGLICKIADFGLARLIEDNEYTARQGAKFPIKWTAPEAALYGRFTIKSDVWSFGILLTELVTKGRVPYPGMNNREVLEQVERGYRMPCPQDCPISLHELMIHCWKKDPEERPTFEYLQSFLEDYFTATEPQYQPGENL
UniProt Q9Y616: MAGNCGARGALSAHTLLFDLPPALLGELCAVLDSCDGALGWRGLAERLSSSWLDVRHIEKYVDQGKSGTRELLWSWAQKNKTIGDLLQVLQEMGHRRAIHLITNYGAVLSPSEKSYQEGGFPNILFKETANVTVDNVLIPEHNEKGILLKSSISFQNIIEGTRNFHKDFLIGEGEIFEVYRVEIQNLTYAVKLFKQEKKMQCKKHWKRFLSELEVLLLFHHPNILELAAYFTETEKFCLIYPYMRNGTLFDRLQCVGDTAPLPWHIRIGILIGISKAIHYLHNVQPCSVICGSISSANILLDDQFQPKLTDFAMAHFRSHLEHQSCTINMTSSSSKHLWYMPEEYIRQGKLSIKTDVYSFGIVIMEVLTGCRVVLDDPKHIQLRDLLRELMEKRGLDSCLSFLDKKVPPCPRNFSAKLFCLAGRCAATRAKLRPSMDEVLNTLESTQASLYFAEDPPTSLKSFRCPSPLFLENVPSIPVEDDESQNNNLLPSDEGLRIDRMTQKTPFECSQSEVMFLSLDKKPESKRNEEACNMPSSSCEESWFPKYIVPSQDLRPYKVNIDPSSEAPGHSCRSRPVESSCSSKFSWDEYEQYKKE
UniProt P06239: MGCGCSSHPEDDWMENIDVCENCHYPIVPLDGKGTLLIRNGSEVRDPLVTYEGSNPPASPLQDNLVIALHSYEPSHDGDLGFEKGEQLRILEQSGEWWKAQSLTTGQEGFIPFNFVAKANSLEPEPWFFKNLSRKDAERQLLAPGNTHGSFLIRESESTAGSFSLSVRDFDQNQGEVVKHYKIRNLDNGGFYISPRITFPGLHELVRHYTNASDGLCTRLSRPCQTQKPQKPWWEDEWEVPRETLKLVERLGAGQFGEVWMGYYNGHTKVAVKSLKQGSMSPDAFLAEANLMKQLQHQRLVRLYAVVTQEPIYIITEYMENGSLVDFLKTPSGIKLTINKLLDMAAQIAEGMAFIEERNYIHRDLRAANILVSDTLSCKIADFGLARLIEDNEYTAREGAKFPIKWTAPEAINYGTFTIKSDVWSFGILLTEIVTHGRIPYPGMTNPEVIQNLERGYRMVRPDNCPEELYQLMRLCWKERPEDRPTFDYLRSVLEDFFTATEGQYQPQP
UniProt P53667: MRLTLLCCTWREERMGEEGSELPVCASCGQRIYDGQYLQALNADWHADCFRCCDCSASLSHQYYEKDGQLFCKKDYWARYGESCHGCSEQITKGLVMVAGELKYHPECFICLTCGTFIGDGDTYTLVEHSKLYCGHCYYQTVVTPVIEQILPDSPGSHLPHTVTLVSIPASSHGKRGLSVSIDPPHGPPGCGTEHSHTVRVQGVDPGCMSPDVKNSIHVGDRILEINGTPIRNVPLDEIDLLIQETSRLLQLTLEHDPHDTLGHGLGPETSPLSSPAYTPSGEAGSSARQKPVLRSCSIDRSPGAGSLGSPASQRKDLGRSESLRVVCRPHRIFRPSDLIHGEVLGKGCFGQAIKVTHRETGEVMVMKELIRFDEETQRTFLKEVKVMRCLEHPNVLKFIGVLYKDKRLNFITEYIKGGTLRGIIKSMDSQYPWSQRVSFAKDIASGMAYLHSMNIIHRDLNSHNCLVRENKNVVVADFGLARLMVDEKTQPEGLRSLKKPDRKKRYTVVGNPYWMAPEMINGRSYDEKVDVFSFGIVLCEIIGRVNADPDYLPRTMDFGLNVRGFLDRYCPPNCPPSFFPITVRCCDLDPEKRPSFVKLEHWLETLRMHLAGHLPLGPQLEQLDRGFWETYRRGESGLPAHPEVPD
UniProt P07948: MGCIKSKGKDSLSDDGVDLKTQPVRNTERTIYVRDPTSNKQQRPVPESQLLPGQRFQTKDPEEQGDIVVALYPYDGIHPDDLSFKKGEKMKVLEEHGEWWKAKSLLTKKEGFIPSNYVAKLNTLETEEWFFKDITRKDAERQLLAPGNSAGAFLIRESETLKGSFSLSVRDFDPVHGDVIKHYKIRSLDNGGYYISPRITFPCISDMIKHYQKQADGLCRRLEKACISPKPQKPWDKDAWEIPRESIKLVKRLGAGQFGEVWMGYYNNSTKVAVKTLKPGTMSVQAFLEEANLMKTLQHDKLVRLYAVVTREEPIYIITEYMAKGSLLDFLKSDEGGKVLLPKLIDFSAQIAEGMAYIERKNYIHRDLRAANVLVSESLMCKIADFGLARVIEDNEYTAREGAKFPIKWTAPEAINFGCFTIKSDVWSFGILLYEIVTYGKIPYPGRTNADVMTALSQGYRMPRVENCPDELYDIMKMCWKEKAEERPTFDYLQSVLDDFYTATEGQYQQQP
UniProt Q12851: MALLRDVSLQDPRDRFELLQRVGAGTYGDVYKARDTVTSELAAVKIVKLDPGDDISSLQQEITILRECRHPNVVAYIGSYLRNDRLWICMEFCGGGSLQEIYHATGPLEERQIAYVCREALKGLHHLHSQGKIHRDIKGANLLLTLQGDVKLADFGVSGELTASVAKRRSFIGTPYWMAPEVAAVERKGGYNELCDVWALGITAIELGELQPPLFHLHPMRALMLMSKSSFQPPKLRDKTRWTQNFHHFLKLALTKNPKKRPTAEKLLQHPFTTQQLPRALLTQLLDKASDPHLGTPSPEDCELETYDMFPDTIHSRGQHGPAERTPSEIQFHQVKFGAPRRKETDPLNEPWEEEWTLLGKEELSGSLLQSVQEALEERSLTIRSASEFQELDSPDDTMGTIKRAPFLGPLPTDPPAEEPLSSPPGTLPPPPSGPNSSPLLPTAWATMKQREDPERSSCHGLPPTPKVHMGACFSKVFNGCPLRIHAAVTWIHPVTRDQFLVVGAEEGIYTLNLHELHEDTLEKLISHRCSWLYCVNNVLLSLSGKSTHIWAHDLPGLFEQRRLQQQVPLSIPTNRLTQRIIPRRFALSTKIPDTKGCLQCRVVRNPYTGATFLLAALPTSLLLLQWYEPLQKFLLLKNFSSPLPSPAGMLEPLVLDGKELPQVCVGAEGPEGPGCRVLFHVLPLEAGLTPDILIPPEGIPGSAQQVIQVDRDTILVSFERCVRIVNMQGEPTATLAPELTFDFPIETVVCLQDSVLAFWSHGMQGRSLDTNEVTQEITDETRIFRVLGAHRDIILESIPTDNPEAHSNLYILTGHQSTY
UniProt O75460: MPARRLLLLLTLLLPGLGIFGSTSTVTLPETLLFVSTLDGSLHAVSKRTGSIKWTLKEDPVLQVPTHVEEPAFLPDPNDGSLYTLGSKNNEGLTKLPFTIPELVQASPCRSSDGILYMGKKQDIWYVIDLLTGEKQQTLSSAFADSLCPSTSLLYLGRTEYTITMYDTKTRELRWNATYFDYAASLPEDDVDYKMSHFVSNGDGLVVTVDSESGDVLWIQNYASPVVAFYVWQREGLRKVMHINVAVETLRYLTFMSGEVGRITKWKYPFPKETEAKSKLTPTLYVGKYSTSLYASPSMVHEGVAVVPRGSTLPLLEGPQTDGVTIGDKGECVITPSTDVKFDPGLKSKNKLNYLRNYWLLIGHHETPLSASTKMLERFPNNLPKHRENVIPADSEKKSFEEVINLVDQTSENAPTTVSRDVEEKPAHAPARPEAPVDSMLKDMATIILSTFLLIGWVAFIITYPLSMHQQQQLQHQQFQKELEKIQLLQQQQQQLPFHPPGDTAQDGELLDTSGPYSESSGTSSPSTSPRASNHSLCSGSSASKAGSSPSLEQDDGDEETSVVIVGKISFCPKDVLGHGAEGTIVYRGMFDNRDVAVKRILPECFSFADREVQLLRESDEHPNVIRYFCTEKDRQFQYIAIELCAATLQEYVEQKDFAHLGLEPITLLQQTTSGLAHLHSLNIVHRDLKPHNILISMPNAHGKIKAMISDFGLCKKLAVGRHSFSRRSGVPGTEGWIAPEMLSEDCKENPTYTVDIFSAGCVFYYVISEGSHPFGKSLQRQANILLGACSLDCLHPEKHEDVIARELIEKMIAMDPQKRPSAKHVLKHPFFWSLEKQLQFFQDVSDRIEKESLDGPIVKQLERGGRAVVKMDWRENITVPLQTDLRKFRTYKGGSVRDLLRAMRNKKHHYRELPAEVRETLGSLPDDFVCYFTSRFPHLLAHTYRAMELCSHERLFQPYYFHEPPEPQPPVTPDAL

Key:
Assay in all cases: kinase-Nluc reporter destabilization hit call (1 = scored as downregulated) (binary); higher = compound decreases kinase abundance
Settings in all cases: K562; 2-18 h
[1] = target: FGFR1 (UniProt P11362)
[2] = target: FGFR2 (UniProt P21802)
[3] = target: FGFR3 (UniProt P22607)
[4] = target: FGR (UniProt P09769)
[5] = target: FLT3 (UniProt P36888)
[6] = target: FYN (UniProt P06241)
[7] = target: GSK3A (UniProt P49840)
[8] = target: HER2 (UniProt P04626)
[9] = target: INSRR (UniProt P14616)
[10] = target: IRAK3 (UniProt Q9Y616)
[11] = target: JAK1 (UniProt P23458)
[12] = target: LCK (UniProt P06239)
[13] = target: LIMK1 (UniProt P53667)
[14] = target: LIMK2 (UniProt P53671)
[15] = target: LMTK2 (UniProt Q8IWU2)
[16] = target: LYN (UniProt P07948)
[17] = target: MAP2K1 (UniProt Q02750)
[18] = target: MAP2K2 (UniProt P36507)
[19] = target: MAP4K2 (UniProt Q12851)
[20] = target: ERN1 (UniProt O75460)

Measured: kinase-Nluc reporter destabilization hit call

CNC(=O)c1cc(Oc2ccc(NC(=O)Nc3cc(C(C)(C)C)nn3-c3ccc4ncccc4c3)c(F)c2)ccn1 [Rebastinib] (2.5 µM)
active: [13] 1
inactive: [1] 0 | [2] 0 | [3] 0 | [4] 0 | [5] 0 | [6] 0 | [7] 0 | [8] 0 | [9] 0 | [10] 0 | [11] 0 | [12] 0 | [14] 0 | [15] 0 | [16] 0 | [17] 0 | [18] 0 | [19] 0

Cc1nc(-c2cnc(NC(C)C)n(C)c2=O)ccc1Oc1ccnc(-c2cnn(C)c2)c1 (2.5 µM)
inactive: [20] 0 | [1] 0 | [2] 0 | [3] 0 | [4] 0 | [6] 0 | [7] 0 | [8] 0 | [9] 0 | [10] 0 | [11] 0 | [13] 0 | [14] 0 | [15] 0 | [16] 0 | [17] 0 | [18] 0 | [19] 0

Cc1c(Cn2c(C)nc3c(C(=O)O)cc(N4CCOCC4)cc32)cccc1C(F)(F)F (10 µM)
inactive: [1] 0 | [2] 0 | [3] 0 | [5] 0 | [6] 0 | [7] 0 | [8] 0 | [9] 0 | [10] 0 | [11] 0 | [12] 0 | [13] 0 | [14] 0 | [15] 0 | [16] 0 | [17] 0 | [18] 0 | [19] 0

Cc1ccc2c(Nc3cccc(OC(F)(F)F)c3)nccc2c1Nc1ncccc1-c1ncnc2[nH]cnc12 (10 µM)
inactive: [20] 0 | [2] 0 | [3] 0 | [4] 0 | [5] 0 | [6] 0 | [7] 0 | [8] 0 | [9] 0 | [10] 0 | [11] 0 | [12] 0 | [13] 0 | [14] 0 | [15] 0 | [16] 0 | [17] 0 | [18] 0 | [19] 0

CN1CCN(C(=O)c2ccc(-c3ccc4c(C=O)c(O)ccc4c3)s2)CC1 (2.5 µM)
inactive: [1] 0 | [2] 0 | [3] 0 | [4] 0 | [5] 0 | [6] 0 | [7] 0 | [8] 0 | [9] 0 | [10] 0 | [11] 0 | [12] 0 | [13] 0 | [14] 0 | [15] 0 | [16] 0 | [17] 0 | [18] 0 | [19] 0

COc1cc(OC)c(F)c(COc2cnc(Nc3cnn(CCO)c3)nc2)c1F (2.5 µM)
inactive: [20] 0 | [1] 0 | [2] 0 | [4] 0 | [5] 0 | [6] 0 | [7] 0 | [8] 0 | [9] 0 | [10] 0 | [11] 0 | [12] 0 | [13] 0 | [14] 0 | [15] 0 | [16] 0 | [17] 0 | [18] 0 | [19] 0

CN1CCN(c2ccc(C(=O)Nc3n[nH]c4ccc(Cc5cc(F)cc(F)c5)cc34)c(NC3CCOCC3)c2)CC1 [Entrectinib] (2.5 µM)
inactive: [20] 0 | [1] 0 | [2] 0 | [3] 0 | [4] 0 | [5] 0 | [6] 0 | [7] 0 | [8] 0 | [9] 0 | [10] 0 | [11] 0 | [13] 0 | [14] 0 | [15] 0 | [16] 0 | [17] 0 | [18] 0 | [19] 0

CCN(CC)CCCCNc1ncc2cc(-c3cc(OC)cc(OC)c3)c(NC(=O)NC(C)(C)C)nc2n1 (10 µM)
inactive: [20] 0 | [2] 0 | [3] 0 | [4] 0 | [5] 0 | [6] 0 | [7] 0 | [8] 0 | [9] 0 | [10] 0 | [11] 0 | [12] 0 | [13] 0 | [14] 0 | [15] 0 | [16] 0 | [17] 0 | [18] 0 | [19] 0

CCN1C(=O)N(c2c(F)c(OC)cc(OC)c2F)Cc2cnc3[nH]c(CN4CCOCC4)cc3c21 [Pemigatinib] (10 µM)
inactive: [20] 0 | [3] 0 | [4] 0 | [5] 0 | [6] 0 | [7] 0 | [8] 0 | [9] 0 | [10] 0 | [11] 0 | [12] 0 | [13] 0 | [14] 0 | [15] 0 | [16] 0 | [17] 0 | [18] 0 | [19] 0

Cc1cc(N2CCOCC2)cc2[nH]c(-c3c(NC[C@@H](O)c4cccc(Cl)c4)cc[nH]c3=O)nc12 (10 µM)
inactive: [20] 0 | [1] 0 | [2] 0 | [3] 0 | [4] 0 | [5] 0 | [6] 0 | [7] 0 | [8] 0 | [9] 0 | [10] 0 | [11] 0 | [13] 0 | [14] 0 | [15] 0 | [16] 0 | [17] 0 | [18] 0 | [19] 0

COCCNCCc1cccc(Nc2ncc3c(n2)-c2ccccc2[C@H](c2ccccc2F)C3)c1 [Derazantinib] (2.5 µM)
inactive: [20] 0 | [2] 0 | [3] 0 | [4] 0 | [5] 0 | [6] 0 | [7] 0 | [8] 0 | [9] 0 | [10] 0 | [11] 0 | [12] 0 | [13] 0 | [14] 0 | [15] 0 | [16] 0 | [17] 0 | [18] 0 | [19] 0

CC(C)(C)c1cc(NC(=O)Nc2ccc(-c3cn4c(n3)sc3cc(OCCN5CCOCC5)ccc34)cc2)no1 [Quizartinib] (10 µM)
inactive: [20] 0 | [1] 0 | [2] 0 | [3] 0 | [4] 0 | [6] 0 | [7] 0 | [8] 0 | [9] 0 | [10] 0 | [11] 0 | [12] 0 | [13] 0 | [14] 0 | [15] 0 | [16] 0 | [17] 0 | [18] 0 | [19] 0

O=c1oc2ccccc2c(O)c1Cc1c(O)c2ccccc2oc1=O [Dicoumarol] (10 µM)
inactive: [20] 0 | [1] 0 | [2] 0 | [3] 0 | [4] 0 | [5] 0 | [6] 0 | [7] 0 | [8] 0 | [9] 0 | [10] 0 | [11] 0 | [13] 0 | [14] 0 | [15] 0 | [16] 0 | [17] 0 | [18] 0 | [19] 0

C=CC(=O)N1CC[C@H](n2nc(C#Cc3cc(OC)cc(OC)c3)c3c(N)ncnc32)C1 [Futibatinib] (10 µM)
inactive: [20] 0 | [1] 0 | [3] 0 | [4] 0 | [5] 0 | [6] 0 | [7] 0 | [8] 0 | [9] 0 | [10] 0 | [11] 0 | [12] 0 | [13] 0 | [14] 0 | [15] 0 | [16] 0 | [17] 0 | [18] 0 | [19] 0

CCn1cc(-c2ccnc3[nH]c(-c4cccc(CN(C)C)c4)cc23)c(-c2ccc(NC(=O)N(C)C)cc2)n1 (2.5 µM)
inactive: [20] 0 | [2] 0 | [3] 0 | [4] 0 | [5] 0 | [6] 0 | [7] 0 | [8] 0 | [9] 0 | [10] 0 | [11] 0 | [12] 0 | [13] 0 | [14] 0 | [15] 0 | [16] 0 | [17] 0 | [18] 0 | [19] 0

Cc1cc(C)c(/C=C2\C(=O)Nc3ccccc32)[nH]1 [Semaxinib] (10 µM)
inactive: [20] 0 | [1] 0 | [2] 0 | [3] 0 | [4] 0 | [5] 0 | [6] 0 | [7] 0 | [8] 0 | [9] 0 | [10] 0 | [11] 0 | [13] 0 | [14] 0 | [15] 0 | [16] 0 | [17] 0 | [18] 0 | [19] 0

O=c1cc(-c2ccccc2)oc2c(O)c(O)ccc12 [7,8-Dihydroxyflavone] (10 µM)
inactive: [1] 0 | [2] 0 | [3] 0 | [4] 0 | [5] 0 | [6] 0 | [7] 0 | [8] 0 | [9] 0 | [10] 0 | [11] 0 | [12] 0 | [13] 0 | [14] 0 | [15] 0 | [16] 0 | [17] 0 | [18] 0 | [19] 0

Three structures from above, arranged by molar mass, low to high:
Cc1cc(C)c(/C=C2\C(=O)Nc3ccccc32)[nH]1 [Semaxinib] (10 µM)
inactive: [20] 0 | [1] 0 | [2] 0 | [3] 0 | [4] 0 | [5] 0 | [6] 0 | [7] 0 | [8] 0 | [9] 0 | [10] 0 | [11] 0 | [13] 0 | [14] 0 | [15] 0 | [16] 0 | [17] 0 | [18] 0 | [19] 0

O=c1oc2ccccc2c(O)c1Cc1c(O)c2ccccc2oc1=O [Dicoumarol] (10 µM)
inactive: [20] 0 | [1] 0 | [2] 0 | [3] 0 | [4] 0 | [5] 0 | [6] 0 | [7] 0 | [8] 0 | [9] 0 | [10] 0 | [11] 0 | [13] 0 | [14] 0 | [15] 0 | [16] 0 | [17] 0 | [18] 0 | [19] 0

CCn1cc(-c2ccnc3[nH]c(-c4cccc(CN(C)C)c4)cc23)c(-c2ccc(NC(=O)N(C)C)cc2)n1 (2.5 µM)
inactive: [20] 0 | [2] 0 | [3] 0 | [4] 0 | [5] 0 | [6] 0 | [7] 0 | [8] 0 | [9] 0 | [10] 0 | [11] 0 | [12] 0 | [13] 0 | [14] 0 | [15] 0 | [16] 0 | [17] 0 | [18] 0 | [19] 0
